Source: PubChem BioAssay AID651803 (National Center for Advancing Translational Sciences (NCATS), 2012)
In all, about 1,200 compounds went through this assay and fewer than 10 were called active. The call rests on the fitted dose curve; in most records, active means well fitted curve in the direction sought with a large enough effect; inconclusive means small, poorly fitted or top-dose-only effect, or another doubt; inactive means no such curve, though single readings can be large or run the other way. The list shows a part of the results.

Protein sequences, listed by entry. Tags and fused reporters are not part of them. Lines headed by an entry give the natural chain unless they say otherwise; changes in a name come on top.
UniProt P11308: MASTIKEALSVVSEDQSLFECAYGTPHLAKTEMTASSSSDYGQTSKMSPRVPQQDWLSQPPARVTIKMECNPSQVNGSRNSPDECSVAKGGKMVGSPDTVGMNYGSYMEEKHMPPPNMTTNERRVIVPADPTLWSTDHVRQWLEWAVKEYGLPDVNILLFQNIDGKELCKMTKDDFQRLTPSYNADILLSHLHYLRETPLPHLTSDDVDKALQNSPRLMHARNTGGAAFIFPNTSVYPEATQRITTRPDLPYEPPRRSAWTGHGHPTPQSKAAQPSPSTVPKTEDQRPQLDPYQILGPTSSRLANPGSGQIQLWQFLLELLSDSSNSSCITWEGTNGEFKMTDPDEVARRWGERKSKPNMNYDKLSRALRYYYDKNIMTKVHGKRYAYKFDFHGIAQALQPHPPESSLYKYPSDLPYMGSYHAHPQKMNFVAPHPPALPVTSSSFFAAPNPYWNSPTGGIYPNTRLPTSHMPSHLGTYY

Biological target: Transcriptional regulator ERG (Homo sapiens) (UniProt P11308)
Assay: qHTS for Small Molecule Inhibitors of the ERG Ets/DNA interaction: TR assay against cherry picks; further: % of control where 0% means no effect
Conditions: ERG Ets domain-DNA fluorescence polarization, Texas red probe; at 154 µM (top of the series)
Source text: The Ets family of proteins is a family of ~30 conserved transcription factors defined by the presence of an ~85 amino acid domain referred to as the Ets domain, which mediates sequence-specific DNA binding to a core DNA element GGAA/T.The Ets family member ERG has been linked to several neoplasms. […] More extensive studies of the effects of over-expression of ERG in prostate cells have recently been carried out and have shown that over-expression of ERG results in increased invasion. […] We will carry out a high throughout screen to identify inhibitors of the interaction between ERG and DNA using a fluorescence polarization (FP) assay with a His-tagged ERG Ets domain and fluorescently-labeled DNA probes to develop small molecule inhibitors of this interaction as probes to test this hypothesis and lay the groundwork for the development of targeted therapies against ERG. This is the confirmation against the cherry picks in theprimary screening assay. NIH Molecular Libraries Probe Production Network [MLPCN] NIH Chemical Genomics Center [NCGC] Grant: NS066464 PI Name: John Bushweller, University of Virgina
1.5 ul of protein solution (1 uM ERG domain in 300mM KCl, 50mM Tris-HCl, 1mM EDTA, 1mM DTT, pH 7.5); 20 nl Control plate and compound library plate; 1.5 ul mixture of 5 nM Fluorescein-DNA and 100nM Texas-615-DNA solution in same buffer as above solution; measure fluorescence polarization sequentially for fluorescein (Excitation = 480 nm, Emission = 535s, 535p nm) and Texas red (Excitation = 555 nm, Emission = 632s, 632p nm).

Activity change, negative = inhibition, inactive:
O=C(Nc1ccc(NS(=O)(=O)c2ccc([N+](=O)[O-])cc2)cc1)c1ccco1 6.22%, CC(C)CCNC(=O)c1ccc2c(SCC(=O)O)c3c(nc2c1)CCCC3 -1.3%, Cn1c(CNC(=O)CNC(=O)c2ccc(C(C)(C)C)cc2)cc(=O)n(C)c1=O -3.56%, CCCC1OC23CCCCC2C(C#N)(C#N)C1(C#N)C(=N)O3 (configuration not stated) 1.67%, Cc1c(-c2ccccc2)oc2c(C(=O)N3CCN(c4ccc([N+](=O)[O-])cc4)CC3)cccc2c1=O 2.34%, Cc1ccc(S(=O)(=O)NC2(C(F)(F)F)C(=O)Nc3c2c(=O)[nH]c(=O)n3-c2ccccc2)cc1 (configuration not stated) -3.48%, COc1cc(/C=C2/S/C(=N/S(=O)(=O)c3ccccc3)NC2=O)c([N+](=O)[O-])cc1OC 4.79%, Cc1ccc(NC(=O)COC(=O)CCc2ccccc2)cc1S(=O)(=O)N1CCOCC1 -14.1%, C/C(=N\NC(=O)c1cc(-c2ccc(Cl)s2)[nH]n1)c1ccncc1 -0.876%, COc1ccc(-c2nc3ccccc3c(=O)[nH]2)cc1 1.78%, COc1ccc(CNC(=O)c2cccnc2SC)cc1OC -8.6%, CN(C)CCOc1cccc(Br)c1 5.57%, CC[C@]12c3[nH]c4ccccc4c3CCN1C(=O)C(CC(=O)NCc1cccc(C(F)(F)F)c1)C[C@@H]2C(=O)N1CCN(C(=O)C2CC2)CC1 (some centres not stated) 5.37%, Cc1onc(C(=O)NCc2ccccn2)c1[N+](=O)[O-] 5.66%, CCc1ccc2oc(C(=O)NCC(c3ccc(Cl)cc3)N3CCOCC3)c(C)c2c1 (configuration not stated) -17.9%, S=C(NCc1ccco1)N1CCN(c2ccccn2)CC1 7.18%, COc1ccc(CCNC(=O)Cn2cc(C(F)(F)F)cc(Cl)c2=O)cc1 2.42%, Cc1ccc(C)c(NC(=O)Cn2cnc3c(oc4ccccc43)c2=O)c1 2.46%, O=C(COC(=O)c1ccc(Cl)cc1[N+](=O)[O-])NCc1ccco1 -4.87%, CC1CC(C)CN(CCCSc2ccccc2)C1 (configuration not stated) 3.95%, Cc1nccc2oc(=O)c(NC(=O)c3ccc(Cl)cc3)cc12 -5.79%, O=C(N/N=C/c1c[nH]c2ccccc12)c1ccc(Br)cc1 -22.3%, Cc1ccccc1OCc1nc(-c2ccc(NC(=O)c3ccc4c(c3)OCO4)cc2)no1 10.3%, CCC(CC)COC(=O)C(C#N)c1nc2ccccc2nc1N1CCN(CC)CC1 (configuration not stated) -11.9%, CCOc1ccc(N/C(SCc2cccc([N+](=O)[O-])c2)=C(/C#N)C(N)=O)cc1 -6.84%, CCN(CC)c1ccc2cc(-c3nc(-c4ccc(OC)cc4)cs3)c(=O)oc2c1 9.04%, COc1ccccc1CN1CC(C(=O)NCc2ncccc2C)CCC1=O (configuration not stated) 2.94%, CCC(C)NC(=O)Cn1cc(S(=O)(=O)N2CCCC2)c(S(=O)(=O)N2CCCC2)c1 (configuration not stated) -8.3%, CCOC(=O)C1=C(CN2CCCCC2)NC(=O)NC1c1cc(C)ccc1C (configuration not stated) -3.01%, COc1ccc(/C=N/Nc2cc(N3CCOCC3)ncn2)c(OC)c1 -10.1%, O=C(NCc1cccnc1)c1ccccc1-c1nc(-c2ccccc2)no1 -5.74%, CCCCNc1c2c3c(cccc3n(C)c1=O)C(=O)c1ccccc1-2 91.7%, COc1cccc2c1cc1c(=O)n(CC(=O)N3CCCC3)nc(C)n12 2.27%, CN1/C(=C\C(=O)c2cccs2)C(C)(C)c2ccccc21 -5.89%, CC1CC(C)CN(S(=O)(=O)c2ccc(NC(=O)CN3C(=O)NC(C)(c4ccccc4)C3=O)cc2)C1 (configuration not stated) -2.77%, CCOC(=O)N1CCC(NC(=O)c2sc3nc4n(c(=O)c3c2C)CCCC4)CC1 -8.02%, COc1ccc(OC)c(NC(=O)c2ccc(CN3CCc4ccccc4C3)cc2)c1 2.4%, CC(C)C(NC(=O)CCNC(=O)c1ccc(C(C)(C)C)cc1)c1nc2ccccc2[nH]1 (configuration not stated) -4.86%, O=C1NCCCN1Cc1ccc(F)cc1Cl 3.22%, COc1ncnc2c1NC1=C(S2)C(=NCCC(=O)O)CC(C)(C)C1 99.7%, CCCC(C(=O)NC1CCCC1)N(C(=O)c1snc(C(N)=O)c1N)c1ccc(F)cc1 (configuration not stated) -20.5%, O=C(O)CN1C(=O)C(=O)N(Cc2ccc(C(F)(F)F)cc2)C1=O -3.42%, CCc1cccc(CC)c1-n1c(-c2cccnc2)n[nH]c1=S 4.55%, COc1ccc(C(=O)Nc2ccnn2C2CCN(Cc3cn(C)nc3C)CC2)cc1 2.22%, CCOc1ccc(/C=C2\SC(=S)N(C)C2=O)cc1OC -5.41%, Cc1ccc(S(=O)(=O)N(CC(=O)NCc2cccnc2)c2ccc(F)cc2)cc1 4.94%, CC(C)C1NC(=S)N(Cc2ccccc2)C1=O (configuration not stated) -0.239%, CCOc1ccc(NC(=O)Cc2c(C(=O)O)n(C)c3ccccc23)cc1 5.3%, Cc1cc(C)nc(N/N=C/c2ccco2)n1 2.57%, COc1cccc(CC2(CO)CCN(S(=O)(=O)N(C)C)CC2)c1 2.59%, CCOCCCNCC(=O)Nc1ccc(S(=O)(=O)NC(C)CC)cc1 (configuration not stated) -4.09%, Cc1cc2nc(-c3ccc[nH]c3=O)n(Cc3ccccc3F)c2cc1C -0.252%, COc1ccc(C(=O)NC(=S)NNC(=O)c2ccc(NC(=O)C(C)C)cc2)cc1 -15.3%, O=C(NC(=S)NNS(=O)(=O)c1ccc(Cl)cc1)c1cccnc1 5.41%, CCc1nc2ccccc2c(C(=O)NCc2ccccc2)c1C -5.65%, O=C(NCc1cccc(Cl)c1)c1ccncc1 -9.86%, Cc1ccc(C(C)NC(=O)c2cccnc2)cc1 (configuration not stated) 3.9%, COc1ccc(NC(=O)COC(=O)C2CCC2)cc1Cl 7.28%, CC(C)NS(=O)(=O)c1ccc(CCC(=O)NCc2ccncc2)cc1 -2.67%, COc1ccc(NC(=O)c2sc3nc(C)cc(C)c3c2N)cc1 5.59%, CCOc1cc(CNc2ccc(O)cc2)ccc1OCc1ccc(Cl)cc1 -3.57%, CCCc1c(OCCCCc2nn[nH]n2)ccc(C(C)=O)c1O 1.56%, Cn1c(Cl)cnc1C1CC(=O)c2cc(Cl)ccc2O1 (configuration not stated) -3.82%, Cc1ccc(C2=NN(CC(=O)NCCN(C)C)C(=O)CC2)cc1 -11.4%, O=S(=O)(NC1CCCCC1N1CCC(O)CC1)c1ccccc1 (configuration not stated) -0.536%, CN(C)c1ccc2c(c1)C(=NO)c1ccccc1-2 -19.4%, COc1cc(/C=N/NC(=O)c2ccncc2)ccc1OC(=O)c1ccc([N+](=O)[O-])cc1 -12.1%, O=[N+]([O-])c1ccc(S(=O)(=O)N/N=C/c2ccsc2)cc1 -10.2%, Nc1cc(-c2nn[nH]n2)ccc1F -15.4%, CC(C)(C)SC(=O)CC1NS(=O)(=O)OC2CCCCC12 (configuration not stated) 1.13%, CC(C)(C)OC(=O)N1CCC(CC2CC(c3cccc(Br)c3)=NO2)(C(=O)NCC2CCCCC2)CC1 (configuration not stated) 9.11%, COc1ccc(C(=S)N2CCN(c3ccccc3C)CC2)cc1OC -5.46%, OC(CNc1ncnc2sccc12)c1ccccc1 (configuration not stated) 4.07%, OCCN1CCN(CCCN2c3ccccc3Sc3ccc(Cl)cc32)CC1 -13.3%, COc1ccccc1N1CCN(C(=O)CSc2nc(C)c(Cc3ccccc3)c(=O)[nH]2)CC1 1.96%, CCOC(=O)COc1ccccc1/C=N/O -6.71%, CC(C)n1cnc2c(NCc3ccccc3)cc(N[C@H](C)CO)cc21 0.94%, CCOC(=O)c1ccc(-c2ccc(/C=C(\C#N)C(=O)Nc3cccc(C)c3)o2)cc1 30.3%, COc1ccc(Nc2ccnc(Nc3ccc(OC)cc3)n2)cc1 -19.5%, CC1(C)C2CCC1(C)C(NCC(O)COc1ccc(C#N)cc1)C2 (configuration not stated) 2.63%, CCOC(=O)NC(=S)Nc1ccc(C(C)(C)C)cc1Br -1.62%, COc1ccc(S(=O)(=O)N2CCc3ccccc32)cc1C(=O)N(CC(C)C)C1CCS(=O)(=O)C1 (configuration not stated) 0.304%, CCN(CC(=O)Nc1ccc(N2CCOCC2)cc1)CC(=O)NC(C)(C)C -0.837%, COCc1cc(C)nc(SCC(=O)Nc2ccc3c(c2)OCCO3)c1C#N -4.26%, CSCCC(NC(=O)/C(=C/c1ccc2c(c1)OCO2)NC(=O)c1cccc([N+](=O)[O-])c1)C(=O)O (configuration not stated) 1.28%, COc1ccc(-c2csc3ncnc(N4CCN(S(=O)(=O)c5ccccc5C#N)CC4)c23)cc1 2.84%, COc1ccc(NC2CCCN(C(=O)C3(C)CCCCC3)C2)cc1OC (configuration not stated) 1.15%, O=C(NCc1ccccc1)N1CCNCC1 1.58%, Cc1cc(NC(=O)COc2ccc(F)c(Cl)c2)no1 -11%, CC(=O)Nc1ccc(NC(=O)Nc2ccc(C)cc2C)cc1 1.3%, Cc1[nH]n(-c2ccccc2)c(=O)c1C=Nc1ccc(S(=O)(=O)NC(N)=O)cc1 2.37%, CCOc1ccc(C(CC(=O)O)NC(=O)Cc2ccc(Cl)cc2)cc1 (configuration not stated) -4.51%
